No constants are given. Whether binding was seen depends on the method and setting. A result given as binding can be weak or reduced; the word gives no strength. Tags and fused reporters may be left off the sequences shown.
Target: taxol-stabilized microtubules
Assay: co-sedimentation; microtubule spin-down: 500 ng of dialyzed MBP-CEP215 (1–300) in PBS incubated with taxol-stabilized microtubules or tubulin, pelleted through a 1 M sucrose cushion in BRB80, Coomassie-stained gel; both purified

binding: binds
B1: MBP-CEP215 (1–300) (domain or fragment, UniProt Q96SN8 1-300)
chain: MMDLVLEEDVTVPGTLSGCSGLVPSVPDDLDGINPNAGLGNGLLPNVSEETVSPTRARNMKDFENQITELKKENFNLKLRIYFLEERMQQEFHGPTEHIYKTNIELKVEVESLKRELQEREQLLIKASKAVESLAEAGGSEIQRVKEDARKKVQQVEDLLTKRILLLEKDVTAAQAELEKAFAGTETEKALRLRLESKLSEMKKMHEGDLAMALVLDEKDRLIEELKLSLKSKEALIQCLKEEKSQMACPDENVSSGELRGLCAAPREEKERETEAAQMEHQKERNSFEERIQALEEDLR

— publication PMC4802056
